The values below come from publication PMC9426605.

These are yes or no findings as the source states them, for the method shown. Binding can be weak; no strength is given. Tags and fused reporters may be left off the sequences shown.

This experiment has as its target DivIC (S. aureus). In words: two-hybrid; bacterial two-hybrid, pKT25 and pUT18 derivatives cotransformed in E. coli BTH101, 30°C, 0.5 mM IPTG; spots on X-Gal plates and β-galactosidase activity against MUG; positive cutoff 4-fold greater than T18/T25.

B1: Penicillin-binding protein 1 (PBP1) of Staphylococcus aureus, T25 fusion (enzyme, UniProt Q2FZ94 1-744)
chain: MAKQKIKIKKNKIGAVLLVGLFGLLFFILVLRISYIMITGHSNGQDLVMKANEKYLVKNAQQPERGKIYDRNGKVLAEDVERYKLVAVIDKKASANSKKPRHVVDKKETAKKLSTVINMKPEEIEKRLSQKKAFQIEFGRKGTNLTYQDKLKIEKMNLPGISLLPETERFYPNGNFASHLIGRAQKNPDTGELKGALGVEKIFDSYLSGSKGSLRYIHDIWGYIAPNTKKEKQPKRGDDVHLTIDSNIQVFVEEALDGMVERYQPKDLFAVVMDAKTGEILAYSQRPTFNPETGKDFGKKWANDLYQNTYEPGSTFKSYGLAAAIQEGAFDPDKKYKSGHRDIMGSRISDWNRVGWGEIPMSLGFTYSSNTLMMHLQDLVGADKMKSWYERFGFGKSTKGMFDGEAPGQIGWSNELQQKTSSFGQSTTVTPVQMLQAQSAFFNDGNMLKPWFVNSVENPVSKRQFYKGQKQIAGKPITKDTAEKVEKQLDLVVNSKKSHAANYRIDGYEVEGKTGTAQVAAPNGGGYVKGPNPYFVSFMGDAPKKNPKVIVYAGMSLAQKNDQEAYELGVSKAFKPIMENTLKYLNVGKSKDDTSNAEYSKVPDVEGQDKQKAIDNVSAKSLEPVTIGSGTQIKAQSIKAGNKVLPHSKVLLLTDGDLTMPDMSGWTKEDVIAFENLTNIKVNLKGSGFVSHQSISKGQKLTEKDKIDVEFSSENVDSNSTNNSDSNSDDKKKSDSKTDKDKSD
Take B1: the binding result is reported as “binds”.

B2: T25-PBP1_(ΔPASTA): S. aureus PBP1 without the PASTA domains (M1-S595) (domain or fragment, UniProt Q2FZ94 1-595)
chain: MAKQKIKIKKNKIGAVLLVGLFGLLFFILVLRISYIMITGHSNGQDLVMKANEKYLVKNAQQPERGKIYDRNGKVLAEDVERYKLVAVIDKKASANSKKPRHVVDKKETAKKLSTVINMKPEEIEKRLSQKKAFQIEFGRKGTNLTYQDKLKIEKMNLPGISLLPETERFYPNGNFASHLIGRAQKNPDTGELKGALGVEKIFDSYLSGSKGSLRYIHDIWGYIAPNTKKEKQPKRGDDVHLTIDSNIQVFVEEALDGMVERYQPKDLFAVVMDAKTGEILAYSQRPTFNPETGKDFGKKWANDLYQNTYEPGSTFKSYGLAAAIQEGAFDPDKKYKSGHRDIMGSRISDWNRVGWGEIPMSLGFTYSSNTLMMHLQDLVGADKMKSWYERFGFGKSTKGMFDGEAPGQIGWSNELQQKTSSFGQSTTVTPVQMLQAQSAFFNDGNMLKPWFVNSVENPVSKRQFYKGQKQIAGKPITKDTAEKVEKQLDLVVNSKKSHAANYRIDGYEVEGKTGTAQVAAPNGGGYVKGPNPYFVSFMGDAPKKNPKVIVYAGMSLAQKNDQEAYELGVSKAFKPIMENTLKYLNVGKSKDDTS
With B2, the binding result was “binds”.
